{"sequences": {"note": "Chains of the proteins cited; added tags and fusions are not shown. Lines headed by an entry give the natural chain unless they say otherwise; changes in a name come on top.", "UniProt Q96RI1": "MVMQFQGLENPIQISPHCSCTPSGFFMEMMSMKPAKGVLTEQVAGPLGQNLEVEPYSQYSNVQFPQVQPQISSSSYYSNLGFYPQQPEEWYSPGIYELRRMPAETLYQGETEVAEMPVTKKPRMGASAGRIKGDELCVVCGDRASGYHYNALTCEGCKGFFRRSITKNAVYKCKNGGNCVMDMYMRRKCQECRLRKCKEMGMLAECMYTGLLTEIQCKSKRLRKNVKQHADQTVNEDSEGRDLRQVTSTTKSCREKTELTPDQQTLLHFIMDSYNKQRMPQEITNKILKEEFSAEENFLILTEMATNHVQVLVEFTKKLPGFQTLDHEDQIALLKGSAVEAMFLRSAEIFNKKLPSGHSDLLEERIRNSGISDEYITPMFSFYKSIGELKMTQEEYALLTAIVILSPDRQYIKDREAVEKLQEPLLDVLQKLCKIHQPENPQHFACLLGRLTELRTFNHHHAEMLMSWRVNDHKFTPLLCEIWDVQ"}, "source": "patent US20240091382A1", "about": "“MINIMAL BILE ACID INDUCIBLE PROMOTERS FOR GENE THERAPY” (priority 2020, published 2024)", "target": "T1, human FXRα2 (Homo sapiens, UniProt Q96RI1)", "T1 sequence (Q96RI1 1-472 isoform Q96RI1-2)": "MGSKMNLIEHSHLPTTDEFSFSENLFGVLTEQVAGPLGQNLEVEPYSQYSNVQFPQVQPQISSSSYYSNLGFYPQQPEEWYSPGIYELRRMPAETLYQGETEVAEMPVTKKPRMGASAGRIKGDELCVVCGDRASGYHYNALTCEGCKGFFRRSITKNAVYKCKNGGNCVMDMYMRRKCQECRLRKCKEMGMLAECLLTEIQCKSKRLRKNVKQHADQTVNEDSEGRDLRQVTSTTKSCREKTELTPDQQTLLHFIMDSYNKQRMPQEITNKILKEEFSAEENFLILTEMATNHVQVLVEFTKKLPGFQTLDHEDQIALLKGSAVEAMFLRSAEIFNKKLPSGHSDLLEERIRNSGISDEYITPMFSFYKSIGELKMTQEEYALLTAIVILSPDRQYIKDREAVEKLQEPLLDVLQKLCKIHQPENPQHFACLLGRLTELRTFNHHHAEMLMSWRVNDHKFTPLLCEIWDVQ", "note": "At least one compound was matched to its structure with a doubt left."}
{"compound": "CC[C@H]1[C@@H](O)[C@@H]2[C@H](CC[C@]3(C)[C@@H]([C@H](C)CCC(=O)O)CC[C@@H]23)[C@@]2(C)CC[C@@H](O)C[C@@H]12", "note": "[OCA, obeticholic acid]", "values": [{"measurement": "absolute luciferase expression levels compared with CDCA-mediated inducibility (30 μM CDCA)", "setting": "Huh-7, pAAV-imPr-LucPEST + human FXRα2", "result": "reached higher levels even at a low concentration"}, {"measurement": "induction of luciferase expression under the control of imPr", "setting": "Huh-7 co-transfected with pAAV-imPr-LucPEST and human FXRα2", "result": "able to induce expression of luciferase"}]}
